In publication PMC10443802 (JCI Insight, 2023):
Several values for one entry are separate records, joined by “and”; a condition that tells them apart may be missing. Equal values may be shown once. Where a name gives a salt, the structure may show the parent alone.

System: OATP1B2
Assay: Untargeted metabolomics of plasma and DRG, WT vs OATP1B2-deficient mice
Assay type: in vivo, mouse
[1] = Figure 5B source data (volcano plot), untargeted metabolomics, WT vs OATP1B2-deficient mice, log2 fold change of metabolite level
[2] = untargeted metabolomics, WT vs OATP1B2-deficient mice, supplement sheet "Figure 5B" (volcano plot)
[3] = untargeted metabolomics, sheet "Figure 5C", WT vs OATP1B2-deficient mice
[4] = untargeted metabolomics, WT vs OATP1B2-deficient mice, supplement sheet "Figure 5B"

Structure (SMILES) | Log2FoldChange [2] | Log2FoldChange [3] | also measured
CCCCCCCC/C=C\CCCCC[C@H](O)CC(=O)O [3-hydroxyoleate*] |  |  | Log2FoldChange [1]: -0.2009
CCCCCCCC/C=C\CCCCCC(O)CC(=O)OC(CC(=O)[O-])C[N+](C)(C)C (centres unmarked) [3-hydroxyoleoylcarnitine] | 0.5656 | 0.1763 | 
O=S(=O)(O)Oc1cccnc1 [3-hydroxypyridine sulfate] | 0.6871 |  | 
O=C(O)CCCCCCC(O)CC(=O)O (centres unmarked) [3-hydroxysebacate] | 0.263 |  | 
CCCCCCCCCCCCCCCC(O)CC(=O)O (centres unmarked) [3-hydroxystearate] |  |  | Log2FoldChange [1]: -0.3401
O=C(O)CCCCC(O)CC(=O)O (centres unmarked) [3-hydroxysuberate] |  |  | Log2FoldChange [1]: -0.3219
CCCCCCCCCCC(O)CC(=O)O (centres unmarked) [3-hydroxytridecanoate] |  | 0.1375 | 
O=C(O)C(=O)c1c[nH]c2ccccc12 [3-indoleglyoxylic acid] |  |  | Log2FoldChange [4]: -0.1361
O=S(=O)(O)Oc1c[nH]c2ccccc12 [3-indoxyl sulfate] | 0.5656 | 0.5361 | 
CC(C)C(=O)C(=O)O [3-methyl-2-oxobutyrate] |  | 0.08406 | Log2FoldChange [1]: -0.2863
CC[C@H](C)C(=O)C(=O)O [3-methyl-2-oxovalerate] |  | -0.074 | Log2FoldChange [1]: -0.2176
C[C@@H](CCC(=O)O)CC(=O)O [3-methyladipate] |  |  | Log2FoldChange [1]: -1.2863
CC(C)=CC(=O)NCC(=O)O [3-methylcrotonylglycine] | 0.3448 |  | 
Cn1c(=N)ccn([C@@H]2O[C@H](CO)[C@@H](O)[C@H]2O)c1=O [3-methylcytidine] |  | -0.1203 | Log2FoldChange [1]: -1.322
C/C(=C\C(=O)O)CC(=O)O [3-methylglutaconate] |  | 0.3785 | Log2FoldChange [4]: 0.08406
O=C(O)CCc1ccccc1.O=C(O)CCc1ccccc1 [3-phenylpropionate (hydrocinnamate)] | 0.696 |  | 
O=C(O)[C@H](O)COP(=O)(O)O [3-phosphoglycerate] |  | -0.1681 | 
N[C@@H](CS(=O)(=O)O)C(=O)O [3-sulfo-L-alanine] |  | -0.08927 | 
NC(=O)NCCC(=O)O [3-ureidopropionate] |  | -0.1047 | Log2FoldChange [4]: 0.08406
CC(=O)Nc1ccc(C(=O)O)cc1 [4-acetamidobenzoate] | 1.098 |  | 

Structure (SMILES) | Log2FoldChange [2] | Log2FoldChange [3] | also measured
CC(=O)NCCCC(=O)O [4-acetamidobutanoate] |  |  | Log2FoldChange [4]: 0.05658
CC(=O)c1ccc(OS(=O)(=O)O)cc1 [4-acetylphenol sulfate] |  |  | Log2FoldChange [1]: -0.1681
C=CCc1ccc(OS(=O)(=O)O)c(O)c1 [4-allylcatechol sulfate] | 0.3448 |  | 
C=CCc1ccc(OS(=O)(=O)O)cc1 [4-allylphenol sulfate] | 0.4854 |  | 
CC(C)CCC[C@@H](C)[C@H]1CC[C@H]2[C@@H]3CCC4=CC(=O)CC[C@]4(C)[C@H]3CC[C@]12C [4-cholesten-3-one] | 0.3674 | -0.2176 | 
CCc1ccc(OS(=O)(=O)O)cc1 [4-ethylphenylsulfate] | 4.103 |  | 
NC(N)=NCCCC(=O)O [4-guanidinobutanoate] | 0.3785 | 0.6041 | 
O=C(O)CCCO [4-hydroxybutyrate (GHB)] |  |  | Log2FoldChange (mouse, in vivo): -0.2515
N#Cc1c(O)c(Cl)c(Cl)c(C#N)c1Cl [4-hydroxychlorothalonil] | 1.124 |  | 
O=C(O)C=Cc1ccc(OS(=O)(=O)O)cc1 [4-hydroxycinnamate sulfate] | 0.856 |  | 
O=C(O)/C=C/c1ccc(O)cc1 [4-hydroxycinnamate] |  |  | Log2FoldChange [4]: 0.2016
N[C@@H](CC(O)C(=O)O)C(=O)O (some centres unmarked) [4-hydroxyglutamate] |  |  | Log2FoldChange [4]: 0
O=C(O)CNC(=O)c1ccc(O)cc1 [4-hydroxyhippurate] |  |  | Log2FoldChange [4]: -0.152
O=C(O)Cc1ccc(OS(=O)(=O)O)cc1 [4-hydroxyphenylacetate sulfate] |  |  | Log2FoldChange [4]: 0.1375
O=C(O)Cc1ccc(O)cc1 [4-hydroxyphenylacetate] |  |  | Log2FoldChange [4]: 0.111
O=C(O)Cc1cnc[nH]1 [4-imidazoleacetate] | 0.4751 |  | 
COc1ccc(OS(=O)(=O)O)cc1 [4-methoxyphenol sulfate] |  |  | Log2FoldChange [4]: -0.0145
CC(C)CC(=O)C(=O)O [4-methyl-2-oxopentanoate] |  | -0.1047 | Log2FoldChange [4]: -0.1361
Cc1ccc(S(=O)(=O)O)cc1 [4-methylbenzenesulfonate] |  | 0.3674 | Log2FoldChange [4]: 0.05658
Cc1ccc(OS(=O)(=O)O)c(O)c1 [4-methylcatechol sulfate] |  |  | Log2FoldChange [4]: 0.09761

Structure (SMILES) | Log2FoldChange [2] | Log2FoldChange [3] | also measured
CCC(C)CCC(=O)NCC(=O)O (centres unmarked) [4-methylhexanoylglycine] | 0.5261 |  | 
O=C1CCNC(=O)N1 [5,6-dihydrouracil] | 0.251 |  | 
O=C1CCN([C@@H]2O[C@H](CO)[C@@H](O)[C@H]2O)C(=O)N1 [5,6-dihydrouridine] |  | 0.2388 | 
NCC(CC[C@H](N)C(=O)O)OC1O[C@H](CO)[C@H](O)[C@H](O)[C@H]1O (stereo partly drawn) [5-(galactosylhydroxy)-L-lysine] |  |  | Log2FoldChange [4]: 0.08406
NCCCCC(=O)O [5-aminovalerate] |  |  | Log2FoldChange [1]: -0.5995
CCCCCCC=CCCCC(=O)O [5-dodecenoate (12:1n7)] |  |  | Log2FoldChange [1]: -0.2176
CCCCCC/C=C\CCCC(=O)OC(CC(=O)[O-])C[N+](C)(C)C (centres unmarked) [5-dodecenoylcarnitine (C12:1)] | 0.546 |  | 
CC(O)CCCC(=O)O (centres unmarked) [5-hydroxyhexanoate] | 0.3334 |  | 
O=C(O)Cc1c[nH]c2ccc(O)cc12 [5-hydroxyindoleacetate] |  |  | Log2FoldChange [1]: -0.2176
NC[C@H](O)CC[C@H](N)C(=O)O [5-hydroxylysine] |  | -0.1361 | Log2FoldChange [1]: -0.2009
Cc1cn([C@H]2C[C@H](O)[C@@H](CO)O2)c(=O)nc1N [5-methyl-2'-deoxycytidine] | 0.8718 | 0.275 | 
Cc1cn(C2OC(CO)C(O)C2O)c(=O)nc1N (centres unmarked) [5-methylcytidine] |  | 0.4114 | Log2FoldChange [4]: 0.05658
CSC[C@H]1O[C@@H](n2cnc3c(N)ncnc32)[C@H](O)[C@@H]1O [5-methylthioadenosine (MTA)] | 0.2265 | 0.2265 | 
CSC[C@H]1O[C@@H](O)[C@H](O)[C@@H]1O [5-methylthioribose**] |  |  | Log2FoldChange [4]: -0.1203
Cc1cn([C@@H]2O[C@H](CO)[C@@H](O)[C@H]2O)c(=O)[nH]c1=O [5-methyluridine (ribothymidine)] |  | 0.3334 | 
O=C(O)[C@@H]1CCC(O)=N1 [5-oxoproline] |  |  | Log2FoldChange (mouse, in vivo): 0.1375 and 0.111
O=P(O)(O)OC[C@H]1O[C@H](OP(=O)(O)OP(=O)(O)O)[C@H](O)[C@@H]1O [5-phosphoribosyl diphosphate (PRPP)] |  | 1.1375 | 
C[C@H](CCC(=O)O)[C@H]1CC[C@H]2[C@@H]3C[C@@H](O)[C@@H]4C[C@H](O)CC[C@]4(C)[C@H]3CC[C@]12C [6-beta-hydroxylithocholate] | 3.716 |  | 
O=S(=O)(O)Oc1ccc2cc[nH]c2c1 [6-hydroxyindole sulfate] | 0.5753 |  | 
